Key:
Assay type in all cases: cell-based
HEL cells = test: MTS proliferation assay with kinase inhibitors, HEL cells; conditions: Homo sapiens, 72 h; HEL cells (JAK2 V617F), three days
Method: K562 cells were obtained from American Type Culture Collection (Manassas, Va.). CMK and HEL cells were obtained from the German National Resource Centre for Biological Material (DSMZ). […] For proliferation assays, cells were incubated for 72 hours in the presence of JAK Inhibitor I, JAK3 inhibitor III, AG-490, PP2, or Src Kinase Inhibitor I (EMD BIOSCIENCES®, San Diego, Calif.), and the number of viable cells was determined with the […] 96® AQueous One solution cell proliferation assay (PROMEGA®, Madison, Wis.). For HMC1.1 cell stimulation, cells were serum starved overnight in RPMI supplemented with 0.1% bovine serum albumin, L-glutamine, and penicillin/streptomycin. The following day, cells were stimulated for five minutes with 100 ng/ml recombinant stem cell factor (Peprotech, Rocky Hill, N.J.).
(§1) 96 AQueous One solution cell proliferation assay (PROMEGA®). […] Total viable cells were determined every day for 1 week using PI exclusion on a Guava cell counter (GUAVA TECHNOLOGIES®). […] Ten days later, colonies were counted manually or using a GELCOUNT® automated colony counter (OXFORD OPTRONIX®, Oxford, UK).

[1] = tested on: BA/F3 cells expressing MPL 1886InsGG; test: Proliferation assay, factor-independent BA/F3 cells expressing MPL 1886InsGG; conditions: Mus musculus, BaF3, 72 h; factor-independent BA/F3 MPL 1886InsGG, three days
Method: as §1
(§2) MPL was then cloned into a Gateway compatible version of MSCV-IRES-GFP (MIG) by performing an LR recombination reaction. […] One milliliter of viral supernatant was mixed with polybrene (5 mg/ml), HEPES (7.5 mM), and 10^6 BA/F3 cells and placed in a centrifuge at 2500 RPM for 90 minutes at 30° C.

[2] = tested on: BA/F3 cells expressing MPL W515L; test: Proliferation assay, factor-independent BA/F3 cells expressing MPL W515L; conditions: Mus musculus, BaF3, 72 h, three days
Method: as §1, §2

IC50 [1]: ~200 nM
IC50 [2]: ~200 nM
Structure (SMILES): CO[C@@H]1[C@H](N(C)C(=O)c2ccccc2)C[C@H]2O[C@]1(C)n1c3ccccc3c3c4c(c5c6ccccc6n2c5c31)C(=O)NC4 [midostaurin]
IC50 (HEL cells): ~400 nM

— US20090312194A1, “SELECTION OF PERSONALIZED CANCER THERAPY REGIMENS USING INTERFERING RNA FUNCTIONAL SCREENING” (OREGON HEALTH & SCIENCE UNIVERSITY, priority 2008, published 2009)
